Results from one PubChem assay

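HNT-34 acute myeloid leukemia cells exposed to compounds for 48 h, with cell viability measured by CellTiter-Glo luminescence. Each compound was run as a dilution series that mostly topped out at 46 µM. The value is the concentration giving half of the fitted maximal loss of viability; smaller values mean stronger inhibitors. Calls come from the fitted dose curve, and inconclusive marks inhibition that is small, poorly fitted or seen only at the highest dose.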

Values are in µM. All entries here are filed as inconclusive. Only part of the assay is shown, chiefly results filed as inconclusive. A potency from a partial, single-point or poor curve is only a rough figure. Some entries filed as inconclusive have a full curve.

Compound,fitted potency (µM),curve
OCCN(CCO)c1nc(N2CCCCC2)c2nc(N(CCO)CCO)nc(N3CCCCC3)c2n1,37.2,"inhibitor, single point"
COc1ccc(-c2ccc3c(N4CCOC[C@@H]4C)nc(N4CCOC[C@@H]4C)nc3n2)cc1CO,0.1481,"inhibitor, full curve"
CN1CC[C@@H](c2c(O)cc(O)c3c(=O)cc(-c4ccc(C(F)(F)F)cc4Cl)oc23)[C@@H]1CO,23.47,"inhibitor, partial curve"
CN(C)CCNC(=O)COc1c2cccc1Cc1cccc(c1OCC(=O)NCCN(C)C)Cc1cccc(c1OCC(=O)NCCN(C)C)Cc1cccc(c1OCC(=O)NCCN(C)C)C2,0.2409,"inhibitor, full curve"
COc1cc2c(cc1O)CC[C@@H]1[C@@H]2CC[C@]2(C)[C@@H](O)CC[C@@H]12,1.481,"inhibitor, full curve"
CCCCc1oc2ccccc2c1C(=O)c1cc(I)c(OCCN(CC)CC)c(I)c1,20.92,"inhibitor, partial curve"
O=C(O)CC1CCC(c2ccc(-c3ccc(Nc4ccc(C(F)(F)F)nc4)cn3)cc2)CC1 (stereo not given),26.33,"inhibitor, partial curve, poor fit"
CC(C)c1cnn2c(NCc3ccccc3)cc(NCCCCCCN)nc12,26.33,"inhibitor, single point"
COc1ccc(-n2c(C)c([N+](=O)[O-])c3ccc(O)cc32)cc1,23.47,"inhibitor, partial curve, poor fit"
O=C(O)c1ccc(O)c2ncc(N3CCOCC3)cc12,26.33,"inhibitor, single point"
CO[C@H]1C[C@@H]2CC[C@@H](C)[C@@](O)(O2)C(=O)C(=O)N2CCCC[C@H]2C(=O)O[C@H]([C@H](C)C[C@@H]2CC[C@@H](OCCO)[C@H](OC)C2)CC(=O)[C@H](C)/C=C(/C)[C@@H](O)[C@@H](OC)C(=O)[C@H](C)C[C@H](C)/C=C\C=CC=C1C,23.47,"inhibitor, partial curve"
OCc1ccc(-c2nn(Cc3ccccc3)c3ccccc23)o1,26.33,"inhibitor, single point"
FC(F)c1nc2ccccc2n1-c1nc(N2CCOCC2)nc(N2CCOCC2)n1,0.7422,"inhibitor, full curve"
O=c1c(O)c(-c2ccc(O)c(O)c2)oc2cc(O)ccc12,33.15,"inhibitor, single point"
CCC(=O)N1CCN(c2ccc(-n3c(=O)ccc4cnc5ccc(-c6cnc7ccccc7c6)cc5c43)cc2C(F)(F)F)CC1,0.0723,"inhibitor, full curve"
CN1CCN(c2nc(C3=C(c4c[nH]c5ccccc45)C(=O)NC3=O)c3ccccc3n2)CC1,9.344,"inhibitor, full curve"
CN[C@@H](C)C(=O)N[C@H]1CN(C(=O)CC(C)C)CC[C@H]2CC[C@@H](C(=O)NC(c3ccccc3)c3ccccc3)N2C1=O,6.615,"inhibitor, partial curve"
NC(=O)c1cccc2c(NC(CN3CCC3)c3ccc(Cl)c(C(F)(F)F)c3)ncnc12 (stereo not given),18.64,"inhibitor, partial curve"
CC(C)C[C@H](CO)Nc1nc(S[C@@H](C)c2ccccc2)nc2nc(N)sc12,37.2,"inhibitor, single point"
CC1=C(/C=C/C(C)=C/C=C/C(C)=C/C=C/C=C(C)/C=C/C=C(C)/C=C/C2=C(C)CCCC2(C)C)C(C)(C)CCC1,37.2,"inhibitor, single point"
COc1cc(NCc2ccc3nc(N)nc(N)c3c2C)cc(OC)c1OC,20.92,"inhibitor, partial curve"
CO[C@H]1C[C@@H]2CC[C@@H](C)[C@@](O)(O2)C(=O)C(=O)N2CCCC[C@H]2C(=O)O[C@H]([C@H](C)C[C@@H]2CC[C@@H](OC(=O)C(C)(CO)CO)[C@H](OC)C2)CC(=O)[C@H](C)/C=C(\C)[C@@H](O)[C@@H](OC)C(=O)[C@H](C)C[C@H](C)/C=C/C=C/C=C/1C,1.817,"inhibitor, partial curve"
Cn1cnc([N+](=O)[O-])c1Sc1ncnc2nc[nH]c12,37.2,"inhibitor, single point"
C[C@]12CCC(=O)C=C1[C@@H]1C[C@@H]1[C@H]1[C@@H]3[C@@H]4C[C@@H]4[C@@]4(CCC(=O)O4)[C@@]3(C)CC[C@@H]12,23.47,"inhibitor, single point"
CC(C)(c1ccc(OCC(O)CO)cc1)c1ccc(OCC(O)CCl)cc1 (stereo not given),37.2,"inhibitor, single point"
CCn1c(=O)c(-c2ccn[nH]2)cc2c(C)nc(N)nc21,2.633,"inhibitor, full curve"
COc1nccc(-c2c(-c3ccc(F)cc3)ncn2C2CCC(O)CC2)n1 (stereo not given),37.2,"inhibitor, partial curve, poor fit"
CCOC(=O)C1=CCCCC1S(=O)(=O)Nc1ccc(F)cc1Cl (stereo not given),26.33,"inhibitor, partial curve"
CCCCN(CCCC)CCC(O)c1cc2c(Cl)cc(Cl)cc2c2cc(C(F)(F)F)ccc12 (stereo not given),16.62,"inhibitor, partial curve"
CN(C)CCCNC(=O)c1ccc(-c2cc(O)c3ncccc3c2)cc1,14.81,"inhibitor, partial curve, poor fit"
O=C(O)C[C@H]1CCc2c1[nH]c1ccc(OCc3ccc(C4CCCC4)c(C(F)(F)F)c3)cc21,37.2,"inhibitor, single point"
CCN(CCCOc1ccc2c(Nc3cc(CC(=O)Nc4cccc(F)c4)[nH]n3)ncnc2c1)CCOP(=O)(O)O,0.2347,"inhibitor, full curve"
CC(O)(C#Cc1ccc2c(c1)N(c1nc(N)ncc1Cl)CC2)c1nccs1 (stereo not given),37.2,"inhibitor, single point"
CCc1ccc2nc(Nc3cc(Cc4ccccc4)nc(NC4CCC(O)CC4)n3)sc2c1 (stereo not given),33.15,"inhibitor, single point"
COc1c(C)c2c(c(O)c1C/C=C(\C)CCC(=O)O)C(=O)OC2,1.481,"inhibitor, full curve"
CN1CCN(c2ncc(-c3cc(Cl)cc(Cl)c3Cl)c(N)n2)CC1,23.47,"inhibitor, single point"
Cn1c(=O)c(-c2c(Cl)cccc2Cl)cc2cnc(Nc3cccc(C(=O)O)c3)nc21,0.1481,"inhibitor, full curve"
Cc1ccc([C@@H]2O[C@H](CO)[C@@H](O)[C@H](O)[C@H]2O)cc1Cc1ccc(-c2ccc(F)cc2)s1,37.2,"inhibitor, single point"
O=c1cc(-c2ccc(O)c(O)c2)oc2cc(O)cc(O)c12,14.81,"inhibitor, partial curve"

Some entries from above, unchanged:

With CN(C)CCCNC(=O)c1ccc(-c2cc(O)c3ncccc3c2)cc1 the assay gave fitted potency 14.81 µM (inhibitor, partial curve, poor fit).
With CCN(CCCOc1ccc2c(Nc3cc(CC(=O)Nc4cccc(F)c4)[nH]n3)ncnc2c1)CCOP(=O)(O)O the assay gave fitted potency 0.2347 µM (inhibitor, full curve).
With OCc1ccc(-c2nn(Cc3ccccc3)c3ccccc23)o1 the assay gave fitted potency 26.33 µM (inhibitor, single point).

Source: PubChem BioAssay AID2202234 (NCATS, 2025).